One test concerns the target T1, RPOTp-nLUC (Arabidopsis) (UniProt O24600).
T1 sequence: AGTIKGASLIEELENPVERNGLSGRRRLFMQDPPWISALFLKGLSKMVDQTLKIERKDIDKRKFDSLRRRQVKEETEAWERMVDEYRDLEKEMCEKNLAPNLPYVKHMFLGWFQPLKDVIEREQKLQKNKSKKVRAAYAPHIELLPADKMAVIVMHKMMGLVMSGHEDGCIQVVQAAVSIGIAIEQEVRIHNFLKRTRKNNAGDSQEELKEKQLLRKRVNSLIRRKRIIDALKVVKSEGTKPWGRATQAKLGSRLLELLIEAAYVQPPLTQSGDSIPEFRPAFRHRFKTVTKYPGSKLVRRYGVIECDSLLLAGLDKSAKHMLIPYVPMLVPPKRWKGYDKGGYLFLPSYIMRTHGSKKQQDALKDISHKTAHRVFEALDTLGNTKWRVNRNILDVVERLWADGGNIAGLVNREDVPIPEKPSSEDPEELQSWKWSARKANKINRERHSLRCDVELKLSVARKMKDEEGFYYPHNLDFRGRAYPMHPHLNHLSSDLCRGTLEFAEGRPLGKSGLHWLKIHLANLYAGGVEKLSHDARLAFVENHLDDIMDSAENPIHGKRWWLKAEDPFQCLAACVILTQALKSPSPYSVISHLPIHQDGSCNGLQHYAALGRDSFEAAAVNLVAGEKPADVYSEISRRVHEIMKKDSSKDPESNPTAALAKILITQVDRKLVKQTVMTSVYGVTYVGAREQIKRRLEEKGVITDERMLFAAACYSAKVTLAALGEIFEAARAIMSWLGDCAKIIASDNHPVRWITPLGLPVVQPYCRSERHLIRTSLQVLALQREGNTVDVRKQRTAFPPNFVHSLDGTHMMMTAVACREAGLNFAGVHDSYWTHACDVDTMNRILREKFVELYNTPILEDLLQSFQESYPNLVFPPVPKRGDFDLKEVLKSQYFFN
Nature of the test: split reporter; firefly luciferase complementation imaging (LCI): nLUC and cLUC fusions co-infiltrated into 4-week-old Nicotiana benthamiana leaves, 3 days, 1 mM D-luciferin, CCD camera.

Another test deals with T2, RPOTp-FLAG (Arabidopsis) (UniProt O24600).
T2 sequence: T1 sequence
Nature of the test: co-IP; RPOTp-FLAG and HA-tagged proteins co-infiltrated into Nicotiana benthamiana leaves; lysate on anti-FLAG M2 magnetic beads 2 h at 4 °C, eluted with 3xFLAG peptide; blots with anti-FLAG and anti-HA.

Here are results for three substances from PMC11789580.

These are yes or no findings as the source states them, for the method shown. Binding seen in cells or lysates may run through a third protein. Where a sequence is shown, tags or fusion partners need not be part of it.

In the case of CRR4 (Arabidopsis), the binding result with RPOTp-nLUC (Arabidopsis) was “no binding”. As to OTP82 (Arabidopsis), the binding entry in the test with RPOTp-nLUC (Arabidopsis) is recorded as “no binding”. On to OZ1-HA (Arabidopsis), for which, in the test with RPOTp-FLAG (Arabidopsis), the binding entry was “no binding”.
